Laboratory results: PubChem BioAssay AID504774 (Drosophila RNAi Screening Center, 2011)

- Test: 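Fly genes whose loss alters survival after alkylation damage to DNA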 (primary screen)
- Cells: Drosophila Kc167 cells
- Reagents: long dsRNA against Drosophila genes, about 0.25 µg dsRNA per well
- Time to read-out: about 6 days: 3 days knock-down, then 3 days with or without MMS
- Conditions: methyl methanesulphonate 0.004% (w/v) for 3 days after knock-down
- Detection: 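Viability in wells given MMS, read as ATP luminescence, normalised by quantiles plate by plate and averaged across replicates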
- Scale: mean viability with MMS and viability with MMS: higher = more surviving cells after MMS
The screen tested about 23,000 reagents; below is an unselected part of those that have a named target and a result. 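Values are quantile-normalised luminescence on an arbitrary scale; higher means more cells surviving MMS.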 Names joined by + are all predicted targets of the reagent. Not all columns of the deposit are shown. Reagent sequences are not shown.

Gene,dsRNA,mean viability with MMS,"viability with MMS, replicate 1"
scra,DRSC07679,3.48e6,3.96e6
otk,DRSC07658,3.59e6,4.03e6
CG11777,DRSC06081,3.60e6,4.08e6
Hs3st-A,DRSC06507,2.87e6,3.54e6
Hs3st-A,DRSC06508,3.59e6,4.15e6
Hs3st-A,DRSC06509,3.45e6,3.92e6
Dpy-30L2,DRSC08205,3.55e6,4.03e6
Smr,DRSC19495,2.76e6,3.02e6
Smr,DRSC20288,2.77e6,3.58e6
Smr,DRSC22986,3.38e6,3.88e6
CG15484,DRSC02494,3.70e6,4.11e6
CG15484,DRSC22836,3.34e6,3.89e6
Coq9,DRSC22913,3.56e6,4.08e6
HP1e,DRSC16379,3.42e6,3.91e6
CG4645,DRSC19907,3.82e6,4.24e6
CG33914,DRSC05033,3.76e6,4.17e6
CG14795,DRSC18513,3.44e6,3.91e6
CG17564,DRSC02626,3.59e6,3.92e6
mus201 + Chrac-14,DRSC03568,3.58e6,4.06e6
mus201 + Chrac-14,DRSC03575,3.26e6,3.60e6
Tsp42Eo,DRSC06184,3.58e6,4.03e6
CG1024,DRSC12496,3.48e6,4.02e6
Cpr65Au,DRSC22738,3.56e6,4.02e6
ssp7,DRSC18878,3.35e6,3.90e6
CG14644,DRSC12230,3.58e6,4.04e6
CG9356,DRSC16476,3.60e6,4.13e6
Septin2,DRSC16855,3.57e6,3.93e6
Tmem214,DRSC02924,3.60e6,3.84e6
Tmem214,DRSC02925,3.60e6,3.87e6
crb,DRSC16927,3.31e6,3.80e6
Asph,DRSC06783,3.58e6,4.09e6
Asph,DRSC07171,3.52e6,3.97e6
unc80,DRSC15329,3.68e6,4.17e6
Bhmt,DRSC02079,3.56e6,4.05e6

Targets listed so far whose gene name starts with A or a (2):
Gene,dsRNA,mean viability with MMS,"viability with MMS, replicate 1"
Asph,DRSC06783,3.58e6,4.09e6
Asph,DRSC07171,3.52e6,3.97e6

Further records follow:
Gene,dsRNA,mean viability with MMS,"viability with MMS, replicate 1"
Phb1,DRSC03563,3.49e6,3.85e6
CG12499,DRSC14521,3.51e6,4.15e6
stas,DRSC20104,3.93e6,4.42e6
CARPB,DRSC18437,3.53e6,3.92e6
CARPB,DRSC18438,3.78e6,4.28e6
Hex-t2,DRSC22517,3.37e6,3.86e6
CG13771,DRSC02277,3.50e6,3.91e6
Alp11,DRSC20080,3.54e6,4.05e6
Rnf11,DRSC21574,3.59e6,4.08e6
CG12460 (retired record),DRSC20970,3.63e6,4.08e6
Fum4,DRSC22577,3.72e6,4.19e6
Ugt317A1,DRSC04470,3.60e6,4.14e6
PCB,DRSC05939,3.63e6,4.14e6
Ctl2,DRSC14423,3.58e6,4.04e6
CG8405,DRSC05599,3.57e6,4.03e6
CG8405,DRSC07166,3.83e6,4.33e6
Btnd,DRSC18316,3.51e6,3.97e6
CG10512,DRSC11615,3.58e6,4.07e6
CG15198,DRSC19645,3.54e6,3.92e6
CG33140,DRSC06030,3.64e6,4.13e6
CG33232 (retired record),DRSC08187,3.47e6,3.94e6
CG33232 (retired record),DRSC08495,3.43e6,3.86e6
Ptp99A,DRSC13933,3.68e6,4.12e6
Ptp99A,DRSC13939,3.62e6,4.14e6
Ptp99A,DRSC14319,3.62e6,4.10e6
Ptp99A,DRSC14320,3.66e6,4.07e6
Ptp99A,DRSC16803,3.78e6,4.35e6
Ptp99A,DRSC22125,3.50e6,3.94e6
Ptp99A,DRSC22477,3.68e6,4.15e6
Ptp99A,DRSC23033,3.59e6,4.21e6
CG13855,DRSC14705,3.41e6,3.90e6
CG15841 (retired record) + Acp33A,DRSC01859,3.56e6,4.16e6
CG34165,DRSC01970,2.93e6,3.52e6
mri,DRSC08259,3.58e6,4.19e6
